From PubChem BioAssay AID2685 (National Center for Advancing Translational Sciences (NCATS), 2010) come the findings set out here.

The other results are listed elsewhere or left out. The main result of the screen is listed elsewhere. These columns were measured beside it and carry no call. Most of these compounds were active or inconclusive in the main read-out, so they are no random draw. Potencies come from curve fits of mixed quality, noted in brackets.

A short description of the test: qHTS Assay for Lipid Storage Modulators in Drosophila S3 Cells.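 On cell number change: cells counted by Cell Tracker Red CMTPX staining in the red channel.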 Conditions: BODIPY lipid droplet fluorescence, 18-24 h; for cell number change: measured here: cell count max response, cells fed with added oleic acid. An outline of the steps:
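Laser-scanning cytometry quantifies lipid droplet accumulation (500–530 nm total intensity; droplet/cell object ratio) in oleic acid-fed (400 uM added) Drosophila S3 cells treated with a concentration series. 20 uM Triacsin C defined 100% inhibition.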

Where [1] appears, read: measured here: cell number channel AC50, cells fed with added oleic acid.
Where [2] appears, read: measured here: lipid fluorescence (Fed channel) AC50, cells fed with added oleic acid.

Broadly, the AC50 is the midpoint of the concentration-response curve, whichever way the signal moves. Low values mean activity at low concentration, high ones activity only at high concentration. For `Cc1cccn2c(=O)c(C(=O)NCCCN3CCCCC3C)c(O)nc12` (configuration not stated), the cell number change was 58.8%. Also, the AC50 under setting [1] is 29.1 µM [rising, single point]. Further, the AC50 under setting [2] was 29.1 µM [rising, single point].

For `CN(C)c1ccc(NC(=O)c2sc(SCC(=O)Nc3nccs3)nc2N)cc1`, the cell number change is -8.86%. Besides, under setting [2], the AC50 is 2.31 µM [rising, partial curve].

Regarding `CC(C)(Oc1ccc(Cl)cc1)C(=O)NC1=NN(c2ccccc2)C(=O)C1`, the cell number change is -58.6%. Besides, under setting [1], the AC50 is 16.4 µM [falling, single point].

As to `CN(Cc1ccccc1)C(=O)c1ccc(NC(=O)Cc2cccc(NC(=O)C3CCCN(C(=O)C4CCC4)C3)c2)cc1` (configuration not stated), the cell number change was 11.2%. The AC50 under setting [1] was 3.26 µM [falling, single point]. In addition, under setting [2], the AC50 is 29.1 µM [falling, single point].

With `CCN1C(=O)[C@H]2[C@@H](c3ccccc3)N3C(=O)N(c4cccc(F)c4)C(=O)[C@@]3(CC(C)C)[C@H]2C1=O`, the cell number change was determined as 11.7%. Besides, the AC50 under setting [2] is 2.31 µM [rising, single point].

Turning to `O=C(COc1ccc(NC(=O)c2ccccc2)cc1)c1ccccc1`, the cell number change is -16.9%.

As to `C=CCNC(=O)NC(=O)COC(=O)COc1ccc(Br)cc1F`, the cell number change is -4.34%. Besides, the AC50 under setting [2] was 0.366 µM [rising, full curve].

As for `COc1ccc(-c2cc(-c3cc(C)ccc3O)[nH]n2)cc1`, the cell number change is -46.4%. For the same compound, the AC50 under setting [1] is 20.6 µM [falling, single point].

Regarding `COC(=O)c1ccccc1N1CCS(=O)(=O)CC1`, the AC50 under setting [2] was 23.1 µM [falling, single point].

In the case of `Cc1ccc(N2CCN(CC3CC=CCC3)CC2)cc1` (configuration not stated), the cell number change is -7.94%. Moreover, under setting [2], the AC50 is 2.59 µM [falling, full curve].

In the case of `O=C(/C=C/c1ccccc1Cl)Nc1ccc2c(c1)C(=O)NC2=O`, the cell number change was -4.79%. Also, the AC50 under setting [1] is 6.51 µM [falling, single point]. Besides, under setting [2], the concentration at half-maximal activity (AC50) was 6.51 µM [falling, partial curve].

Consider `Cc1cc(C)n(-c2ccc(C(=O)OCC(=O)Nc3cc(Cl)ccc3[N+](=O)[O-])cc2)n1`, for which the cell number change was -6.97%.

In the case of `O=[N+]([O-])c1cc([N+](=O)[O-])c(Oc2cccnc2Br)cc1NN1CCCCC1`, the cell number change is -2.91%.

Consider `CCOc1nc(C)ccc1-c1noc(C)n1`, for which the cell number change was -0.978%. The AC50 under setting [2] was 0.00411 µM [rising, full curve, poor fit].

Consider `O=C(/C=C/c1ccccc1)NC(=S)Nc1ncccn1`, for which the cell number change is 12.6%. Also, under setting [2], the AC50 is 3.66 µM [rising, partial curve, poor fit].

`CC1CCCCC1NC(=O)COn1nnc2ccc(Cl)cc21` (configuration not stated): the cell number change is -1.82%. Besides, the AC50 under setting [2] was 0.00461 µM [falling, full curve, poor fit].

With `Cc1ccc(NC(=O)CSCC(=O)Nc2cc(C(F)(F)F)ccc2N2CCOCC2)cc1`, the cell number change is 7.24%. In addition, the AC50 under setting [1] was 2.31 µM [rising, single point]. For the same compound, the AC50 under setting [2] was 2.59 µM [rising, single point].

`O=C(CNCc1ccccc1)Nc1ccc(Oc2ccccc2)cc1`: the cell number change is -11.2%. Also, the AC50 under setting [2] was 25.9 µM [falling, single point].

For `CCCc1nnc(NC(=O)c2ccc(N3C(=O)C4C5C=CC(C5)C4C3=O)cc2)s1` (configuration not stated), the cell number change was -11.9%. The AC50 under setting [2] is 0.00461 µM [rising, full curve, poor fit].

For `COc1ccc(/C=C(\NC(=O)c2ccc(OC)cc2)C(=O)N2CCCCC2)cc1`, the cell number change was -9.07%. Further, the AC50 under setting [2] is 0.0058 µM [rising, full curve, poor fit].

Take `O=C(COC(=O)c1ccco1)Nc1ccc(Br)cc1`: the cell number change is -4.8%. Also, the AC50 under setting [2] is 16.4 µM [falling, single point].

As to `O=C(Nc1nc(-c2ccccc2)cs1)c1ccccc1NS(=O)(=O)c1ccc(F)cc1`, the cell number change is -26.7%.

Regarding `COc1ccc(C)cc1S(=O)(=O)N(CC(=O)Nc1cccc([N+](=O)[O-])c1)c1ccc(C)c(C)c1`, the cell number change amounted to 19.1%. The AC50 under setting [2] is 5.8 µM [rising, full curve].

For the compound `CCOC(=O)C1=C(CSc2nc(-c3ccncc3)ccc2C#N)OC(N)=C(C#N)C1c1ccc(OC)cc1` (configuration not stated), the cell number change came out at 58.9%. The AC50 under setting [1] was 0.082 µM [rising, full curve].

Turning to `CC(=O)Nc1ccc(S(=O)(=O)NC(C)C(=O)NCC(c2ccco2)N(C)C)cc1` (configuration not stated), the cell number change turned out to be 6.43%.

Consider `COC(=O)Cc1ccc(NC(=S)N2CCN(C(=O)C3CCCO3)CC2)cc1` (configuration not stated), for which the cell number change came to 28.8%.

For `CCc1cc(C(=O)Nc2cc(S(=O)(=O)N(C)C)ccc2C)sc1C`, the cell number change was -59.9%. Further, the AC50 under setting [1] was 6.51 µM [falling, partial curve]. The AC50 under setting [2] is 29.1 µM [falling, single point].

Consider `COc1ccc(N)c2c1C(=O)c1ccccc1C2=O`, for which the cell number change worked out at 97%. The AC50 under setting [1] is 29.1 µM [rising, single point].

For `CC1CCN(C(=O)c2cccc(S(=O)(=O)N3CCN(c4ccccc4)CC3)c2)CC1`, the cell number change stood at 22.5%. In addition, under setting [1], the AC50 is 4.61 µM [rising, full curve, poor fit].

Regarding `COCCNC(=O)C1c2cc(OC)c(OC)cc2C(=O)N(C)C1c1cccnc1` (configuration not stated), the cell number change is -16.9%. The AC50 under setting [1] was 3.26 µM [rising, partial curve]. Also, the AC50 under setting [2] is 6.51 µM [rising, single point].

Regarding `O=C(Nc1ccc(S(=O)(=O)N2CCCCC2)cc1)c1ccccc1F`, the cell number change was determined as 3.78%. In addition, the AC50 under setting [2] is 29.1 µM [falling, single point].

As to `COc1ccccc1C(=O)NCC(=O)OCC(=O)Nc1cccc(S(=O)(=O)N(C)C)c1`, the cell number change was -27%. Besides, under setting [2], the AC50 was 6.51 µM [falling, single point].

`C=CCc1ccc(OCCCCN2CCC(C)CC2)c(OC)c1`: the cell number change came out at 3.21%. Also, the AC50 under setting [1] was 3.66 µM [rising, single point]. The AC50 under setting [2] was 1.84 µM [rising, single point].

As to `O=C1CCCC(O)=C1N=Nc1cccc(C(=O)O)c1`, the cell number change was -39.1%. The AC50 under setting [1] was 3.66 µM [falling, full curve, poor fit]. Also, the AC50 under setting [2] is 6.51 µM [falling, single point].

For `NC(=O)c1ccc(N=C2C(=O)Nc3ccc([N+](=O)[O-])cc32)cc1`, the cell number change was -29.6%. For the same compound, the AC50 under setting [2] was 29.1 µM [falling, single point].

`CCOC(=O)/C(N=Nc1sc(C(=O)OCC)c(C)c1C(=O)OCC)=C(\C)O`: the cell number change was 7.36%. For the same compound, the AC50 under setting [2] was 0.461 µM [rising, full curve, poor fit].

Turning to `COC(C(=O)Nc1ccccc1C(=O)N1CCOCC1)c1ccccc1` (configuration not stated), the AC50 under setting [2] is 4.11 µM [rising, full curve].

For `O=C(NC1CC1)c1cc2ccccc2o1`, the cell number change is -23.3%.

With `CC1CCN(CCNC(=O)C2CCCN(S(=O)(=O)c3cccc4nonc34)C2)CC1` (configuration not stated), the cell number change was -0.419%. Besides, the AC50 under setting [2] is 0.164 µM [falling, partial curve, poor fit].

Consider `COc1cc(C(=O)Nc2ccc(O)cc2)ccc1OC(C)=O`, for which the cell number change came to 1.45%. Also, under setting [2], the AC50 was 16.4 µM [falling, partial curve].

As for `CC(=O)c1ccccc1NC(=O)c1ccc2c(c1)NC(=O)C(C)S2` (configuration not stated), the cell number change came to 30.5%. Moreover, under setting [1], the AC50 is 29.1 µM [rising, single point].

`COc1cccc(CSc2nnc(C(F)(F)F)n2Cc2ccc(F)cc2)c1`: the cell number change amounted to 35.3%. Further, the AC50 under setting [1] is 25.9 µM [rising, single point]. Moreover, the AC50 under setting [2] is 29.1 µM [rising, single point].

Consider `CC(C)(C)NC(=O)CC(c1ccccc1)c1ccccc1O` (configuration not stated), for which, under setting [2], the AC50 was 0.651 µM [falling, single point].

Consider `CCOC(=O)[C@@H]1[C@H]2COc3ccccc3[C@@H]2N2C(=O)N(c3cccc(Cl)c3)C(=O)[C@]12C`, for which the cell number change came out at 29.9%.

On to `Cc1cc2ncn(CCCCOc3ccccc3)c2cc1C`, for which the cell number change was -49%. Under setting [1], the AC50 was 25.9 µM [falling, single point]. The AC50 under setting [2] was 2.59 µM [rising, partial curve].

As to `COc1ccccc1/C=N/n1c(C)nnc1-n1nc(C)cc1C`, the cell number change was -3.25%. The AC50 under setting [2] is 0.00517 µM [falling, full curve, poor fit].

For the compound `Cc1ccc2c(c1)cc1c(=O)n(CC(=O)NCc3ccccn3)nc(C)n12`, the cell number change was determined as 2.47%. Under setting [1], the AC50 was 1.64 µM [rising, partial curve, poor fit].

In the case of `CN(CC(=O)Nc1ccccc1Cl)C(=O)C1CCN(S(=O)(=O)c2ccc3c(c2)OCCO3)CC1`, the cell number change was found to be 43%. Further, the AC50 under setting [1] was 23.1 µM [rising, single point]. Also, the AC50 under setting [2] is 23.1 µM [rising, single point].

In the case of `CN(C)CCCOC(=O)c1cc2ccccc2o1`, the cell number change was -12%. The AC50 under setting [2] is 1.46 µM [falling, full curve, poor fit].

Regarding `NC(=O)C1(C(N)=O)OC1c1ccc(Cl)cc1Cl` (configuration not stated), the cell number change is -16.7%. For the same compound, under setting [1], the AC50 was 0.116 µM [falling, full curve, poor fit]. The AC50 under setting [2] was 3.26 µM [falling, full curve].

As to `COc1cc2cnc(Cl)nc2cc1OC`, the cell number change is -26.6%. Moreover, under setting [2], the AC50 was 18.4 µM [falling, partial curve].

On to `O=c1[nH]c(S)nc2sc3c(c12)CCCC3`, for which the cell number change is -23.1%. The half-maximal activity concentration (AC50) under setting [2] is 1.84 µM [falling, partial curve].

Take `CCOC(=O)c1cc(C#N)c(C)nc1N(CC)CC`: the cell number change was -1.41%. In addition, the AC50 under setting [2] was 0.731 µM [falling, full curve, poor fit].

`Cc1ccc2[nH]c(C(=O)O)c(NC(=O)c3ccccc3[N+](=O)[O-])c2c1`: the cell number change was -1.6%.

Turning to `CCS(=O)(=O)c1ccc2c(c1)N(S(=O)(=O)c1cccs1)CC(C(=O)O)O2` (configuration not stated), the cell number change is -25.5%. For the same compound, the AC50 under setting [1] was 3.98 µM [falling, full curve, poor fit]. Moreover, the AC50 under setting [2] was 1.41 µM [falling, full curve, poor fit].

For `CC(C)(O)C#Cc1ccc(CN2CCC(n3nccc3NC(=O)C3CC3)CC2)cc1`, the cell number change came out at 3.4%. Further, the AC50 under setting [2] is 6.51 µM [rising, single point].

Turning to `O=C(CSCCO)Nc1ccc([N+](=O)[O-])cc1`, the cell number change is 1.27%. Besides, under setting [1], the AC50 is 3.66 µM [falling, single point].

Consider `CCOc1ccccc1OCC(=O)Nc1c(C)n(C)n(-c2ccccc2)c1=O`, for which the cell number change was -2.57%. The AC50 under setting [2] is 29.1 µM [falling, single point].
